Data from publication PMC8084160.
These are yes or no findings as the source states them, for the method shown. In cells and extracts the contact can be indirect. Binding can be weak; no strength is given.

The chains behind the UniProt entries cited, without tags or fusion partners. Where a name states a change or a piece, a line headed by the entry shows the natural chain unless it says otherwise.
UniProt P24268: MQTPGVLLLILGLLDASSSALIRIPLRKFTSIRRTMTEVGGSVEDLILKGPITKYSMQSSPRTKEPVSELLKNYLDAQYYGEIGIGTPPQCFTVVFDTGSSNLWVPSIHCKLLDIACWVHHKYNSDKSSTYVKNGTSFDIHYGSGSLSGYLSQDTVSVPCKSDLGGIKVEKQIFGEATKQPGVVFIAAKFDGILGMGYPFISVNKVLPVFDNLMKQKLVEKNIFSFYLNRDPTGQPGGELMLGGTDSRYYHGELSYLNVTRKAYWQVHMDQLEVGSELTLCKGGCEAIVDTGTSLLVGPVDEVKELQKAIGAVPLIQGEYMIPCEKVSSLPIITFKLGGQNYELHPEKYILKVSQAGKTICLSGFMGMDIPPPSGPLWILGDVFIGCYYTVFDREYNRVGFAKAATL

Target: T1, prosaposin (rat (endogenous in epididymal fluid of Sprague-Dawley rats)) (UniProt P10960)
T1 sequence: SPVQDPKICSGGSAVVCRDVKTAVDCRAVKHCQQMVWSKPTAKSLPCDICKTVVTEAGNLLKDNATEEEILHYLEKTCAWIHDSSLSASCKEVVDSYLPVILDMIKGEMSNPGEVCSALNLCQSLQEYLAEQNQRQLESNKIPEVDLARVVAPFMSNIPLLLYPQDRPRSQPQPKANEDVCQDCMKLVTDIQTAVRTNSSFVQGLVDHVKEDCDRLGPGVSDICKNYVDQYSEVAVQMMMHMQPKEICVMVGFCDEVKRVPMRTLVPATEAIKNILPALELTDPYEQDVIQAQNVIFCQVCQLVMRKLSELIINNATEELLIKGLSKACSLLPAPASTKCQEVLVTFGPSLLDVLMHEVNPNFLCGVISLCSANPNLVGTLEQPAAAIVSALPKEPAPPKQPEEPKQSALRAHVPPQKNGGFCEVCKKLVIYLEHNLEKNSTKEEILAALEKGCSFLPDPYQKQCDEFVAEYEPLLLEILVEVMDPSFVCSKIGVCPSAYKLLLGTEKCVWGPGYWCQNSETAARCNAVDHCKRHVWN
Assay: co-IP; anti-prosaposin antibody on protein A sepharose beads incubated 16 h at 4°C with 1 ml epididymal fluid (IS/caput, corpus, cauda) of control and castrated rats; washed with PBS; cathepsin D detected by immunoblot

- binding: binds
Substance: procathepsin D (from UniProt P24268) (enzyme)
